This is one part of the list.
The targets below were run with CC1Cc2ccccc2N1C(=O)C1CCCN(C1)C(=O)CCl (mixture of isomers) [TRIM25 ligand 11 (diastereomer mixture)] (assay: probe-labelled cysteine peptide fold change vs DMSO (competition) (log2 fold change); higher = less target engagement (more negative = stronger competition)). Details: 10 µM; THP-1; incubation time: 4 h.
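Also: competitive chemoproteomic profiling in live THP-1 cells with an iodoacetamide desthiobiotin (IA-DTB) probe, comparing probe-labelled peptide intensities in compound-treated cells against DMSO-treated controls.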

Target | probe-labelled cysteine peptide fold change
NAPRT_Q6XQN6_477+484_LCLQQGQLCEPLPSLAESR (UniProt Q6XQN6) | -0.369
NCDN_Q9UBB6_415_EVCQLLPFLVR (UniProt Q9UBB6) | 0.00407
NCBP1_Q09161_231_THVPMLQVWTADKPHPQEEYLDCLWAQIQK (UniProt Q09161) | -0.033
NAXE_Q8NCW5_127_SPPTVLVICGPGNNGGDGLVCAR (UniProt Q8NCW5) | 0.256
NCAPH2_Q6IBW4_309_EGAPEPASCVK (UniProt Q6IBW4) | 0.0125
NARF_Q9UHQ1_192_VLGRPITAHLCTAK (UniProt Q9UHQ1) | -0.127
MYO6_Q9UM54_321_MCTAMK (UniProt Q9UM54) | -0.157
MYO18A_Q92614_1046_LHFVHCFLPVAEGWAGEPR (UniProt Q92614) | 0.231
MYO1G_B0I1T2_655_MTCEYTWPNHLLGSDK (UniProt B0I1T2) | 0.178
MYO6_Q9UM54_610_NNDALHMSLESLICESR (UniProt Q9UM54) | 0.0134
NARS_O43776_359_LEDLVCDVVDR (UniProt O43776) | 0.417
NCALD_P61601_38_DCPSGHLSMEEFK (UniProt P61601) | 0.262
MYO1G_B0I1T2_97_SRDTCIVISGESGAGK (UniProt B0I1T2) | -0.0106
NAPA_P54920_84_HDAATCFVDAGNAFK (UniProt P54920) | 0.0886
NCAPH_Q15003_239_CEIDPMFQK (UniProt Q15003) | -0.0904
MYSM1_Q5VVJ2_360_NLNDNEMLFHSCQMVEESHEEEELKPPEQEIEIDR (UniProt Q5VVJ2) | -0.0444
NAA38_Q9BRA0_17_EENGCCSR (UniProt Q9BRA0) | -0.0185
NAA25_Q14CX7_381_VFVDLLPATQCTK (UniProt Q14CX7) | -0.171
N4BP2_Q86UW6_1096_STFVEESELTSADESENLNILCK (UniProt Q86UW6) | -0.188
NAXE_Q8NCW5_158_RPNKPLFTALVTQCQK (UniProt Q8NCW5) | -0.313

Target | probe-labelled cysteine peptide fold change
NAPRT_Q6XQN6_48_CPFGGAFALAAGLR (UniProt Q6XQN6) | -0.231
NAA15_Q9BXJ9_529_HFIEITDDQFDFHTYCMR (UniProt Q9BXJ9) | -0.0244
NCBP1_Q09161_409_LDTMNTTCVDR (UniProt Q09161) | 0.242
MYO9B_Q13459_34_EQAAYHLHIYPQLSTTESQASCR (UniProt Q13459) | 0.244
NAE1_Q13564_384_LLCSNSAFLR (UniProt Q13564) | -0.025
MYO9B_Q13459_1169_HIQSCK (UniProt Q13459) | -0.0237
MYO18A_Q92614_404_ANAPSCDR (UniProt Q92614) | 0.17
NAPRT_Q6XQN6_463_VWPPGAQEPCTVRPAQVEPLLR (UniProt Q6XQN6) | -0.0107
NARS_O43776_511_KYGTCPHGGYGLGLER (UniProt O43776) | -0.29
NAT10_Q9H0A0_517_DTLFCYHK (UniProt Q9H0A0) | 0.143
NAB2_Q15742_499_CPAPGPHPALVEGR (UniProt Q15742) | -0.0488
MYL9_P24844_109_NAFACFDEEASGFIHEDHLR (UniProt P24844) | -1.03e-05
NACC2_Q96BF6_441_ESEMNVIAADMCTNAR (UniProt Q96BF6) | 0.138
NCBP1_Q09161_332_KTCAAQLVSYPGK (UniProt Q09161) | -0.271
NCAPG2_Q86XI2_964_MLECIAR (UniProt Q86XI2) | 0.251
NCDN_Q9UBB6-2_5_ASDCEPALNQAEGR (UniProt Q9UBB6) | 0.0744
NCBP1_Q09161_477+483_ILDIVPPTFSALCPANPTCIYK (UniProt Q09161) | 0.0521
NAT1_P18440_223+233_SFCSLQTPDGVHCLVGFTLTHR (UniProt P18440) | 0.00488
NASP_P49321_84_YGETANECGEAFFFYGK (UniProt P49321) | 0.00978

Same assay, conditions: 50 µM; THP-1; incubation time: 4 h

Target | probe-labelled cysteine peptide fold change
NAPRT_Q6XQN6_477+484_LCLQQGQLCEPLPSLAESR (UniProt Q6XQN6) | -0.251
NCDN_Q9UBB6_415_EVCQLLPFLVR (UniProt Q9UBB6) | 0.163
NCBP1_Q09161_231_THVPMLQVWTADKPHPQEEYLDCLWAQIQK (UniProt Q09161) | -0.109
NAXE_Q8NCW5_127_SPPTVLVICGPGNNGGDGLVCAR (UniProt Q8NCW5) | 0.453
NCAPH2_Q6IBW4_309_EGAPEPASCVK (UniProt Q6IBW4) | -0.231
NARF_Q9UHQ1_192_VLGRPITAHLCTAK (UniProt Q9UHQ1) | -0.262
MYO6_Q9UM54_321_MCTAMK (UniProt Q9UM54) | -0.145
MYO18A_Q92614_1046_LHFVHCFLPVAEGWAGEPR (UniProt Q92614) | 0.422
MYO1G_B0I1T2_655_MTCEYTWPNHLLGSDK (UniProt B0I1T2) | 0.205
MYO6_Q9UM54_610_NNDALHMSLESLICESR (UniProt Q9UM54) | -0.0225
NARS_O43776_359_LEDLVCDVVDR (UniProt O43776) | 0.125
NCALD_P61601_38_DCPSGHLSMEEFK (UniProt P61601) | -0.0472
MYO1G_B0I1T2_97_SRDTCIVISGESGAGK (UniProt B0I1T2) | 0.0895
NAPA_P54920_84_HDAATCFVDAGNAFK (UniProt P54920) | 0.00981
NCAPH_Q15003_239_CEIDPMFQK (UniProt Q15003) | -0.17
MYSM1_Q5VVJ2_360_NLNDNEMLFHSCQMVEESHEEEELKPPEQEIEIDR (UniProt Q5VVJ2) | -0.244
NAA38_Q9BRA0_17_EENGCCSR (UniProt Q9BRA0) | -0.193
NAA25_Q14CX7_381_VFVDLLPATQCTK (UniProt Q14CX7) | 0.03
N4BP2_Q86UW6_1096_STFVEESELTSADESENLNILCK (UniProt Q86UW6) | -0.112
NAXE_Q8NCW5_158_RPNKPLFTALVTQCQK (UniProt Q8NCW5) | -0.265

Target | probe-labelled cysteine peptide fold change
NAPRT_Q6XQN6_48_CPFGGAFALAAGLR (UniProt Q6XQN6) | 0.159
NAA15_Q9BXJ9_529_HFIEITDDQFDFHTYCMR (UniProt Q9BXJ9) | 0.00122
NCBP1_Q09161_409_LDTMNTTCVDR (UniProt Q09161) | 0.223
MYO9B_Q13459_34_EQAAYHLHIYPQLSTTESQASCR (UniProt Q13459) | 0.35
NAE1_Q13564_384_LLCSNSAFLR (UniProt Q13564) | -0.00331
MYO9B_Q13459_1169_HIQSCK (UniProt Q13459) | -0.105
MYO18A_Q92614_404_ANAPSCDR (UniProt Q92614) | -0.00658
NAPRT_Q6XQN6_463_VWPPGAQEPCTVRPAQVEPLLR (UniProt Q6XQN6) | 0.0586
NARS_O43776_511_KYGTCPHGGYGLGLER (UniProt O43776) | -0.0416
NAT10_Q9H0A0_517_DTLFCYHK (UniProt Q9H0A0) | 0.232
NAB2_Q15742_499_CPAPGPHPALVEGR (UniProt Q15742) | -0.139
MYL9_P24844_109_NAFACFDEEASGFIHEDHLR (UniProt P24844) | -0.0812
NACC2_Q96BF6_441_ESEMNVIAADMCTNAR (UniProt Q96BF6) | -0.0939
NCBP1_Q09161_332_KTCAAQLVSYPGK (UniProt Q09161) | -0.324
NCAPG2_Q86XI2_964_MLECIAR (UniProt Q86XI2) | 0.0831
NCDN_Q9UBB6-2_5_ASDCEPALNQAEGR (UniProt Q9UBB6) | -0.297
NCBP1_Q09161_477+483_ILDIVPPTFSALCPANPTCIYK (UniProt Q09161) | 0.0197
NAT1_P18440_223+233_SFCSLQTPDGVHCLVGFTLTHR (UniProt P18440) | 0.0089
NASP_P49321_84_YGETANECGEAFFFYGK (UniProt P49321) | 0.236

Reference: the supplement of paper PMC12067093, “Discovery and optimisation of a covalent ligand for TRIM25 and its application to targeted protein ubiquitination” (Chemical Science, 2025)
